Experimental data reported in patent US7998954B2, “Pyrimidodiazepinone derivative” (Kyowa Hakko Kirin Co., Ltd., priority 2007, dated 2011).
Some of these results come from one statement about several compounds together. At least one structure is not confirmed: it was looked up by name or label, or the drawing left a doubt.

Test system: α2δ protein
Assay: α2δ protein binding experiment ([3H]-gabapentin binding inhibition, rat cerebral cortex membrane fraction)
Settings: 0.1 μmol/L test compound, 20 nmol/L [3H]-Gabapentin

SMILES | inhibitory activity ([3H]-Gabapentin binding inhibition) [%]
CCNc1ncc2c(n1)N1CCC[C@H]1CN(c1cccc(-c3nn(CC(=O)N(C)C)c(=O)o3)c1)C2=O [Compound 104, (S)—N,N-Dimethyl 2-{5-[3-(9-Ethylamino-6-oxo-2,3,3a,4-tetrahydro-1H,6H-5,8,10,10b-tetraazabenzo[e]azulen-5-yl)phenyl]-2-oxo-1,3,4-oxadiazol-3(2H)-yl}acetamide] | ≥ 50
CNC(=O)Cn1nc(-c2cccc(N3C[C@@H]4CCCN4c4nc(NC)ncc4C3=O)c2)oc1=O [Compound 105, (S)—N-Methyl 2-{5-[3-(9-Methylamino-6-oxo-2,3,3a,4-tetrahydro-1H,6H-5,8,10,10b-tetraazabenzo[e]azulen-5-yl)phenyl]-2-oxo-1,3,4-oxadiazol-3(2H)-yl}acetamide] | ≥ 50
CNc1ncc2c(n1)N1CCC[C@H]1CN(c1cccc(-c3nn(CC(=O)N4CCOCC4)c(=O)o3)c1)C2=O [Compound 106, (S)-5-[3-(9-Methylamino-6-oxo-2,3,3a,4-tetrahydro-1H,6H-5,8,10,10b-tetraazabenzo[e]azulen-5-yl)phenyl]-3-(2-morpholino-2-oxoethyl)-1,3,4-oxadiazol-2(3H)-one] | ≥ 50
CCNc1ncc2c(n1)N1CCC[C@H]1CN(c1cccc(-c3nn(CC(=O)NCCF)c(=O)o3)c1)C2=O [Compound 107, (S)—N-(2-Fluoroethyl) 2-{5-[3-(9-ethylamino-6-oxo-2,3,3a,4-tetrahydro-1H,6H-5,8,10,10b-tetraazabenzo[e]azulen-5-yl)phenyl]-2-oxo-1,3,4-oxadiazol-3(2H)-yl}acetamide] | ≥ 50
CCNc1ncc2c(n1)N1CCC[C@H]1CN(c1cccc(-c3nsc(=O)n3C)c1)C2=O [Compound 108, (S)-3-[3-(9-Ethylamino-6-oxo-2,3,3a,4-tetrahydro-1H,6H-5,8,10,10b-tetraazabenzo[e]azulen-5-yl)phenyl]-4-methyl-1,2,4-thiadiazol-5(4H)-one] | ≥ 50
CNc1ncc2c(n1)N1CCC[C@H]1CN(c1cccc(-c3nn(C)c(=O)s3)c1)C2=O [Compound 110, (S)-3-Methyl-5-[3-(9-methylamino-6-oxo-2,3,3a,4-tetrahydro-1H,6H-5,8,10,10b-tetraazabenzo[e]azulen-5-yl)phenyl]-1,3,4-thiadiazol-2(3H)-one] | ≥ 50
CCNc1ncc2c(n1)N1CCC[C@H]1CN(c1cccc(-c3nn(C)c(=O)s3)c1)C2=O [Compound 111, (S)-5-[3-(9-Ethylamino-6-oxo-2,3,3a,4-tetrahydro-1H,6H-5,8,10,10b-tetraazabenzo[e]azulen-5-yl)phenyl]-3-methyl-1,3,4-thiadiazol-2(3H)-one] | ≥ 50
CCNc1ncc2c(n1)N1CCC[C@H]1CN(c1cccc(-c3nn(C)c(=S)o3)c1)C2=O [Compound 112, (S)-9-Ethylamino-5-[3-(4-methyl-5-thioxo-4,5-dihydro-1,3,4-oxadiazol-2-yl)phenyl]-1,2,3,3a,4,5-hexahydro-5,8,10,10b-tetraazabenzo[e]azulen-6-one] | ≥ 50
CNc1ncc2c(n1)N1CCC[C@H]1CN(c1cccc(-c3nn(C)c(=S)o3)c1)C2=O [Compound 113, (S)-5-[3-(4-Methyl-5-thioxo-4,5-dihydro-1,3,4-oxadiazol-2-yl)phenyl]-9-methylamino-1,2,3,3a,4,5-hexahydro-5,8,10,10b-tetraazabenzo[e]azulen-6-one] | ≥ 50
CCNc1ncc2c(n1)N1CCC[C@H]1CN(c1ccccc1-c1nn(C)c(=O)o1)C2=O [Compound 114, (S)-5-[2-(9-Ethylamino-6-oxo-2,3,3a,4-tetrahydro-1H,6H-5,8,10,10b-tetraazabenzo[e]azulen-5-yl)phenyl]-3-methyl-1,3,4-oxazol-2(3H)-one] | ≥ 50
